# Measurements taken from patent US5786195.
# Tested on: BssHII multi-specific methylase (bssHIIM1) (Bacillus stearothermophilus H3)
# Assay: activity in cells
# Details: protein in cells, only the site is given
sequence,measurement,setting,value
ACGCGT (double strand) [MluI site],activity on this sequence,"partial modification, partially resistant to MluI",less active
CGGCCG (double strand) [EagI site],activity on this sequence,"partial modification, partially resistant to EagI",less active
GCGCGC (double strand) [BssHII site],activity on this sequence,"methylation in E. coli, plasmid resistant to BssHII digestion",active

# Construct, isoform or probe ends are uncertain for at least one entry. A weaker result is weaker than the reference pair of the same experiment.
